According to paper PMC5873529:
Results are given in words; binding and its absence hold for the method and conditions named. Binding seen in cells or lysates may run through a third protein. Some entries that bind do so weakly or less than the wild type.

By UniProt entry, the sequences of proteins in these tests, tags left out.
UniProt Q8IX03: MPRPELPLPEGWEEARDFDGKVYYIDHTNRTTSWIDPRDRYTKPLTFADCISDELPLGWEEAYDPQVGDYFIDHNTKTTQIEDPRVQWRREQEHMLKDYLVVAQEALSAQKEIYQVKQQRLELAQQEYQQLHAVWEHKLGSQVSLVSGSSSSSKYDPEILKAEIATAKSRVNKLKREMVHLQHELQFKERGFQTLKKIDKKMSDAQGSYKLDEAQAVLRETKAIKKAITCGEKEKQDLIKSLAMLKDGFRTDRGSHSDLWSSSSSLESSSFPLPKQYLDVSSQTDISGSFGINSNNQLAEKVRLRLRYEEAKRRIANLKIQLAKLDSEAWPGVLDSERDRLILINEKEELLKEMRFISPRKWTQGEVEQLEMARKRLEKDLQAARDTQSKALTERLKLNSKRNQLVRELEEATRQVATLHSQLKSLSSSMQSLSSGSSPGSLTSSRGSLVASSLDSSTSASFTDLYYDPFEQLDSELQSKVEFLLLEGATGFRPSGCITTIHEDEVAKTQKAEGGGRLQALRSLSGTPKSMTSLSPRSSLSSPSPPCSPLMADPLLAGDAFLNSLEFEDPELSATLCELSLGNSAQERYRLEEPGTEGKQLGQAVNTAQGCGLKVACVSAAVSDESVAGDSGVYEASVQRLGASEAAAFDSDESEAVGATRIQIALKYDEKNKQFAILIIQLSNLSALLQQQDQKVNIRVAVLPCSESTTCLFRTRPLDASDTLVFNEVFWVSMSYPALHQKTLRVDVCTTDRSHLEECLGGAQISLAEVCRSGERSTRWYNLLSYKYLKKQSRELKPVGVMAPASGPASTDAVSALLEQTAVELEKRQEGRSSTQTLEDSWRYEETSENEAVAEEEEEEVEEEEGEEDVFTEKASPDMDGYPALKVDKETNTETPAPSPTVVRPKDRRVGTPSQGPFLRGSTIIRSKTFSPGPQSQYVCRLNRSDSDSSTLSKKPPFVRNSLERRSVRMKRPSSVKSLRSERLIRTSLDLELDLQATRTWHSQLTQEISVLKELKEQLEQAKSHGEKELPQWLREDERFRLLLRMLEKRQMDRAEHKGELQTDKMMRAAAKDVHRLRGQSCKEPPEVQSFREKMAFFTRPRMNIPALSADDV

Molecular target: wild-type KIBRA expressed in MDA-MB-231 cells for co-immunoprecipitation (UniProt Q8IX03)
Experiment: co-IP; MDA-MB-231 cells expressing wild-type or mutated KIBRA; which protein was precipitated is not told

B1: PTPN14 (protein tyrosine phosphatase non-receptor 14) (enzyme, UniProt Q15678 1-1187)
chain: MPFGLKLRRTRRYNVLSKNCFVTRIRLLDSNVIECTLSVESTGQECLEAVAQRLELRETHYFGLWFLSKSQQARWVELEKPLKKHLDKFANEPLLFFGVMFYVPNVSWLQQEATRYQYYLQVKKDVLEGRLRCTLDQVIRLAGLAVQADFGDYNQFDSQDFLREYVLFPMDLALEEAVLEELTQKVAQEHKAHSGILPAEAELMYINEVERLDGFGQEIFPVKDNHGNCVHLGIFFMGIFVRNRIGRQAVIYRWNDMGNITHNKSTILVELINKEETALFHTDDIENAKYISRLFATRHKFYKQNKICTEQSNSPPPIRRQPTWSRSSLPRQQPYILPPVHVQCGEHYSETHTSQDSIFHGNEEALYCNSHNSLDLNYLNGTVTNGSVCSVHSVNSLNCSQSFIQASPVSSNLSIPGSDIMRADYIPSHRHSAIIVPSYRPTPDYETVMRQMKRGILHTDSQSQSLRNLNIINTHAYNQPEDLVYSQPEMRERHPYTVPYGPQGVYSNKLVSPSDQRNPKNNVVPSKPGASAISHTVSTPELANMQLQGSHNYSTAHMLKNYLFRPPPPYPRPRPATSTPDLASHRHKYVSGSSPDLVTRKVQLSVKTFQEDSSPVVHQSLQEVSEPLTATKHHGTVNKRHSLEVMNSMVRGMEAMTLKSLHLPMARRNTLREQGPPEEGSGSHEVPQLPQYHHKKTFSDATMLIHSSESEEEEEEAPESVPQIPMLREKMEYSAQLQAALARIPNKPPPEYPGPRKSVSNGALRQDQASLPPAMARARVLRHGPAKAISMSRTDPPAVNGASLGPSISEPDLTSVKERVKKEPVKERPVSEMFSLEDSIIEREMMIRNLEKQKMAGLEAQKRPLMLAALNGLSVARVSGREENRVDATRVPMDERFRTLKKKLEEGMVFTEYEQIPKKKANGIFSTAALPENAERSRIREVVPYEENRVELIPTKENNTGYINASHIKVVVGGAEWHYIATQGPLPHTCHDFWQMVWEQGVNVIAMVTAEEEGGRTKSHRYWPKLGSKHSSATYGKFKVTTKFRTDSVCYATTGLKVKHLLSGQERTVWHLQYTDWPDHGCPEDVQGFLSYLEEIQSVRRHTNSMLEGTKNRHPPIVVHCSAGVGRTGVLILSELMIYCLEHNEKVEVPMMLRLLREQRMFMIQTIAQYKFVYQVLIQFLQNSRLI
  binding: binds
